{"sequences": {"note": "Amino acid sequences for entries named in this document (tags omitted). A change or cut given only in a name is not applied to a line headed by its entry.", "UniProt Q13936, whole entry": "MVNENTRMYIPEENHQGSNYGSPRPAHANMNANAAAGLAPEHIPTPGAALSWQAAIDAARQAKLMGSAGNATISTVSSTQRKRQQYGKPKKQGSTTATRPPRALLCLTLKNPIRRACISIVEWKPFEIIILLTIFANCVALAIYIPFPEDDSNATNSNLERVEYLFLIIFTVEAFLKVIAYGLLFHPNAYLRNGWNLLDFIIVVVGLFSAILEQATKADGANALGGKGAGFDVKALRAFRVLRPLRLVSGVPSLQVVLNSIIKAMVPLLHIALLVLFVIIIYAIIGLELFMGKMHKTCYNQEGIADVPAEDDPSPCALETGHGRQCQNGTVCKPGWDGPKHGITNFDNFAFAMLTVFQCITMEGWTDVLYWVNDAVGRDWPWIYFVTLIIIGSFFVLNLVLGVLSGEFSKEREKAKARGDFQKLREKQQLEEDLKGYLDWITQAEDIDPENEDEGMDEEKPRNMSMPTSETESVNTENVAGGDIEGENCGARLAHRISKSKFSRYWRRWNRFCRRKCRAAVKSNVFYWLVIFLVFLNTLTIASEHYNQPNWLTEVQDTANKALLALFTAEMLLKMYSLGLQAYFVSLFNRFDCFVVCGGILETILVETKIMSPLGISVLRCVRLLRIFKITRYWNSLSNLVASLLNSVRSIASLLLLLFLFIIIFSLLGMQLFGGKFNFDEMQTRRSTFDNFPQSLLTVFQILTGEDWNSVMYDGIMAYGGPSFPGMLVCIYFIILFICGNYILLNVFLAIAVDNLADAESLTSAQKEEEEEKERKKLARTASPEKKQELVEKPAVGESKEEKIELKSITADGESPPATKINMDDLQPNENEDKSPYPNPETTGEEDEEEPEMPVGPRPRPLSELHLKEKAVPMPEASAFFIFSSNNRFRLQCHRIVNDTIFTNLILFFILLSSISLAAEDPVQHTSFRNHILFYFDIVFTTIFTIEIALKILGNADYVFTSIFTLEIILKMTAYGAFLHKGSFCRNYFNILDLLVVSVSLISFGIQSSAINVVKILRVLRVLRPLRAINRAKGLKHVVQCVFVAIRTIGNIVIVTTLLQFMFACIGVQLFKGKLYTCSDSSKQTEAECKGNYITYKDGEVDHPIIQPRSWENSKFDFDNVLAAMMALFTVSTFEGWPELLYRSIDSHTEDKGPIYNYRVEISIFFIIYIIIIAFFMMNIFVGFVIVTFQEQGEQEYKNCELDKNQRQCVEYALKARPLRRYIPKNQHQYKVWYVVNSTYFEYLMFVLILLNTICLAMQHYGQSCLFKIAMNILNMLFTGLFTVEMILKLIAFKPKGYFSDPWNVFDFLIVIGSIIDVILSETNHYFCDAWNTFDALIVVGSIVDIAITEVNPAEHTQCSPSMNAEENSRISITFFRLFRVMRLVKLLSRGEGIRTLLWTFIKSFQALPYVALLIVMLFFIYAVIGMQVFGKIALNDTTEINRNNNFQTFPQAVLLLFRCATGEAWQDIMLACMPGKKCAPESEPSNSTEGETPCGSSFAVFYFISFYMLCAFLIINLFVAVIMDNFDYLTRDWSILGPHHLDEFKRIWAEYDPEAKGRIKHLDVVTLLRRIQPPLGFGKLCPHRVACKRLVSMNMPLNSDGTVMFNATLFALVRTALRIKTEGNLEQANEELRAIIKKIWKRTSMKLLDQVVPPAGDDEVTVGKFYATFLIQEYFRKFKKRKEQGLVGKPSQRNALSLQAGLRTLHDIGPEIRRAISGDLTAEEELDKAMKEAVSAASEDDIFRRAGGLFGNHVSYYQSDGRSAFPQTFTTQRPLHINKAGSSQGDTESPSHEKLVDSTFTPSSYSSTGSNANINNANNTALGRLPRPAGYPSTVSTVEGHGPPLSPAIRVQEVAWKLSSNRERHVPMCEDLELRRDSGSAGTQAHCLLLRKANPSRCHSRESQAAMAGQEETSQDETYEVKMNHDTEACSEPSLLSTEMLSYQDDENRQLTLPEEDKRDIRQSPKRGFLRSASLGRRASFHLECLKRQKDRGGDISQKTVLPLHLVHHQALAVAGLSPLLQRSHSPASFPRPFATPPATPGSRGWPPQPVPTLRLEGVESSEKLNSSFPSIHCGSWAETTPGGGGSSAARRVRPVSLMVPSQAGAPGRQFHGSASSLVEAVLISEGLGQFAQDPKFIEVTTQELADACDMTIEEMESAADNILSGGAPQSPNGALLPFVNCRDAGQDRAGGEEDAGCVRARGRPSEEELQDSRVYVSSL"}, "source": "paper PMC4657039", "about": "(Assay and Drug Development Technologies, 2014)", "key": {"human Cav1.2/β2/α2δ1 [1]": {"target": "T1, human Cav1.2/β2/α2δ1 (Homo sapiens, UniProt Q13936)", "settings": "two-test pulse protocol"}, "human Cav1.2/β2/α2δ1 [2]": {"target": "T1, human Cav1.2/β2/α2δ1", "settings": "1 μM; test pulse 10 mV, holding −90 mV, 60-s CP to −50 mV"}}}
{"smiles": "COC(=O)C1=C(C)NC(C)=C(C(=O)OC)C1c1ccccc1[N+](=O)[O-]", "note": "[Nifedipine, nifedipine]", "values": [{"measurement": "use dependence of Cav1.2 inhibition", "setting": "human Cav1.2/β2/α2δ1 [1]", "result": "no use dependence"}, {"measurement": "effect on Cav1.2 currents", "setting": "human Cav1.2/β2/α2δ1 [2]", "result": "completely blocked"}]}
